Results deposited as PubChem BioAssay AID1259308 (NCATS, 2017)
The deposit covers about 59,000 reagents; this is a random part of them. About 1,510 of all reagents (2.6%) count as active. 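Calls use total luciferase alone and ignore viability, so some active siRNAs may act by altering cell number.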 Entries without a mark were called inactive. Reagents against one gene are numbered here.

- Test: 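Knock-downs that increase output of a recombinant reporter protein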 (primary screen)
- Cells: human HEK293 embryonic kidney cells stably expressing firefly luciferase (HEK-CMV-Luc2-Hygro)
- Reagent: single siRNA against human genes, 0.8 pmol siRNA per well
- Duration: 72 h
- Measurement: 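Reporter luminescence and viable-cell signal on separate replicate plates, given as percent of non-targeting control and median/MAD z-scores, plus per-cell luciferase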
- Scale: total luciferase, z-score and total luciferase, % of control: higher = more reporter protein produced; luciferase per cell, z-score: higher = more reporter output per viable cell; viable cells, % of control: higher = more viable cells
- Hit rule: 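An siRNA counts as active if its total luciferase robust z-score exceeds 3; genes with two or more such siRNAs out of three were retested with fresh siRNAs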
- Meaning of the calls: active = raised luciferase; inactive = no rise

gene	reagent no.	total luciferase, z-score	total luciferase, % of control	luciferase per cell, z-score	viable cells, % of control
RELT (RELT TNF receptor)	1	0.319	88.2	0.26	92.1
RELT (RELT TNF receptor)	2	0.842	98.6	0.574	94.8
RELT (RELT TNF receptor)	3	-0.268	76.6	-0.374	94.4
SLC25A24	1	0.351	88.9	0.141	95.7
SLC25A24	2	-0.199	77.9	0.191	82.8
SLC25A24	3	1.07	103	0.956	89.7
SETD1B (SET domain containing 1B, histone lysine methyltransferase)	1	-0.293	76.1	-0.309	92.2
SETD1B (SET domain containing 1B, histone lysine methyltransferase)	2	-1.53	51.5	-0.72	69.6
SETD1B (SET domain containing 1B, histone lysine methyltransferase)	3	-0.769	66.6	-0.71	89.7
RIMS4 (regulating synaptic membrane exocytosis 4)	1	0.824	98.3	0.587	94.1
RIMS4 (regulating synaptic membrane exocytosis 4)	2	1	102	0.743	93.6
RIMS4 (regulating synaptic membrane exocytosis 4)	3	1.45	111	0.936	96.7
COQ2 (coenzyme Q2, polyprenyltransferase)	1	0.101	83.9	-0.201	98.8
COQ2 (coenzyme Q2, polyprenyltransferase)	2	-0.397	74	-0.359	90.9
COQ2 (coenzyme Q2, polyprenyltransferase)	3	1.39	110	0.377	111
XAB2 (XPA binding protein 2)	1	2.19	126	4.54	42.5
XAB2 (XPA binding protein 2)	2	2.44	130	4.77	41.5
XAB2 (XPA binding protein 2)	3	0.451	90.9	-0.0632	103
MPZL3 (myelin protein zero like 3)	1	0.551	92.8	0.241	97.4
MPZL3 (myelin protein zero like 3)	2	0.125	84.4	0.00689	94.1
MPZL3 (myelin protein zero like 3)	3	0.0902	83.7	0.134	90.3
ZBTB17 (zinc finger and BTB domain containing 17)	1	-0.452	72.9	0.866	64.8
ZBTB17 (zinc finger and BTB domain containing 17)	2	-1.12	59.6	-1.29	93.5
ZBTB17 (zinc finger and BTB domain containing 17)	3	0.281	87.5	-0.255	105
P2RY13 (purinergic receptor P2Y13)	1	-0.604	69.9	-0.565	90.6
P2RY13 (purinergic receptor P2Y13)	2	-1.28	56.5	-0.332	68.8
P2RY13 (purinergic receptor P2Y13)	3	-0.529	71.4	-1.3	112
RPS25 (ribosomal protein S25)	1	-0.837	65.2	-0.215	77.2
RPS25 (ribosomal protein S25)	2	-1.42	53.7	-0.773	73.5
RPS25 (ribosomal protein S25)	3	-1.81	45.9	-1.81	82.6
CAMK2G (calcium/calmodulin dependent protein kinase II gamma)	1	-0.891	64.2	-1.13	96.5
CAMK2G (calcium/calmodulin dependent protein kinase II gamma)	2	-1.96	42.8	-0.876	60.3
CAMK2G (calcium/calmodulin dependent protein kinase II gamma)	3	-0.545	71	-0.662	94.5
PRM3 (protamine 3)	1	-0.552	70.9	-0.522	90.9
PRM3 (protamine 3)	2	-0.642	69.1	-0.686	92.5
PRM3 (protamine 3)	3	1.71	116	1.22	93.9
HMG20A (high mobility group 20A)	1	-1.61	49.8	-1.06	73.5
HMG20A (high mobility group 20A)	2	0.221	86.3	-0.169	101
HMG20A (high mobility group 20A)	3	-1.88	44.5	-2.48	95.6
UGT1A10 (UDP glucuronosyltransferase family 1 member A10)	1	-0.0689	80.5	0.506	78.8
UGT1A10 (UDP glucuronosyltransferase family 1 member A10)	2	2.21	126	1.76	88.4
UGT1A10 (UDP glucuronosyltransferase family 1 member A10)	3	-0.672	68.5	-1.01	99.8
DEFA5 (defensin alpha 5)	1	2.43	130	2.57	73.9
DEFA5 (defensin alpha 5)	2	-0.165	78.6	-0.107	90.3
DEFA5 (defensin alpha 5)	3	1.73	116	2.26	71.8
NOTCH2NLA (notch 2 N-terminal like A)	1	-0.758	66.8	-0.621	87.9
NOTCH2NLA (notch 2 N-terminal like A)	2	-0.919	63.6	-0.743	86.4
NOTCH2NLA (notch 2 N-terminal like A)	3	-0.0986	79.9	-0.9	113
TMC1 (transmembrane channel like 1)	1	0.418	90.2	0.307	93
TMC1 (transmembrane channel like 1)	2	0.416	90.2	-0.222	107
TMC1 (transmembrane channel like 1)	3	-0.0658	80.6	-0.962	116
OR8I2 (olfactory receptor family 8 subfamily I member 2)	1	-0.261	76.7	0.527	74.6
OR8I2 (olfactory receptor family 8 subfamily I member 2)	2	1	102	1.11	84.8
OR8I2 (olfactory receptor family 8 subfamily I member 2)	3	0.0131	82.1	-0.084	93.8
SPDYE7P	1	0.331	88.5	0.104	96.2
SPDYE7P	2	0.362	89.1	-0.808	123
SPDYE7P	3	1.77	117	0.746	108
CLSTN3 (calsyntenin 3)	1	-0.0781	80.3	0.259	83.9
CLSTN3 (calsyntenin 3)	2	1.94	121	0.796	109
CLSTN3 (calsyntenin 3)	3	-0.24	77.1	-0.612	101
ANKFN1 (ankyrin repeat and fibronectin type III domain containing 1)	1	0.519	92.2	0.501	90.3
ANKFN1 (ankyrin repeat and fibronectin type III domain containing 1)	2	0.299	87.8	0.447	87.3
ANKFN1 (ankyrin repeat and fibronectin type III domain containing 1)	3	0.72	96.2	0.613	91.5
USP11 (ubiquitin specific peptidase 11)	1	-2.24	37.3	-3.4	102
USP11 (ubiquitin specific peptidase 11)	2	-0.00373	81.8	-0.317	99.4
USP11 (ubiquitin specific peptidase 11)	3	0.554	92.9	0.757	85.1
CATSPERT (catsper channel auxiliary subunit tau)	1	1.09	104	1.37	80.8
CATSPERT (catsper channel auxiliary subunit tau)	2	1.37	109	0.727	101
CATSPERT (catsper channel auxiliary subunit tau)	3	-0.949	63	-0.587	82.2
MYEOV (myeloma overexpressed)	1	0.246	86.8	-0.0762	98.9
MYEOV (myeloma overexpressed)	2	-0.847	65	0.101	70.8
MYEOV (myeloma overexpressed)	3	0.74	96.6	1.17	79.3
PHETA1 (PH domain containing endocytic trafficking adaptor 1)	1	-1.25	57	-0.164	66.5
PHETA1 (PH domain containing endocytic trafficking adaptor 1)	2	1.24	106	1.12	88.6
PHETA1 (PH domain containing endocytic trafficking adaptor 1)	3	-0.852	64.9	-0.478	82.3

Reprinted from above, 11 entries:
gene	reagent no.	total luciferase, z-score	total luciferase, % of control	luciferase per cell, z-score	viable cells, % of control
SETD1B (SET domain containing 1B, histone lysine methyltransferase)	2	-1.53	51.5	-0.72	69.6
SETD1B (SET domain containing 1B, histone lysine methyltransferase)	3	-0.769	66.6	-0.71	89.7
RIMS4 (regulating synaptic membrane exocytosis 4)	1	0.824	98.3	0.587	94.1
RIMS4 (regulating synaptic membrane exocytosis 4)	2	1	102	0.743	93.6
RIMS4 (regulating synaptic membrane exocytosis 4)	3	1.45	111	0.936	96.7
COQ2 (coenzyme Q2, polyprenyltransferase)	1	0.101	83.9	-0.201	98.8
COQ2 (coenzyme Q2, polyprenyltransferase)	2	-0.397	74	-0.359	90.9
COQ2 (coenzyme Q2, polyprenyltransferase)	3	1.39	110	0.377	111
XAB2 (XPA binding protein 2)	1	2.19	126	4.54	42.5
XAB2 (XPA binding protein 2)	2	2.44	130	4.77	41.5
XAB2 (XPA binding protein 2)	3	0.451	90.9	-0.0632	103
